In this experiment the target is human neuronal α7 nicotinic acetylcholine receptor (human) (UniProt P36544). In words: radioligand binding; only the binder purified.

By UniProt entry, the sequences of proteins in these tests, tags left out. Residues count along the entry.
UniProt P36544, residues 23-502: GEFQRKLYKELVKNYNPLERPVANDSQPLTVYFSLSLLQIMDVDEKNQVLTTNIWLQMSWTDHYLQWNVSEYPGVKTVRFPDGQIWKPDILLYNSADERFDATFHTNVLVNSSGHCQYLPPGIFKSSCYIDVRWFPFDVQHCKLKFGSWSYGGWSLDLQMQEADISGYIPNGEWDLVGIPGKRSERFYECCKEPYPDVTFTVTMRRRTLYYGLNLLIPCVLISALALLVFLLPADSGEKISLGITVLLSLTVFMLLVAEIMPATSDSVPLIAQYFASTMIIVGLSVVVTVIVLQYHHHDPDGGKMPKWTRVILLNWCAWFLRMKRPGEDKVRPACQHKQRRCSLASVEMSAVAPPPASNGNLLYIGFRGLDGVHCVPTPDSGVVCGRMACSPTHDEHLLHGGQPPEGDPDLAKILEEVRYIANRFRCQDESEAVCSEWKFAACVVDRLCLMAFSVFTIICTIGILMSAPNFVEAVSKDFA
UniProt P60615, residues 22-95: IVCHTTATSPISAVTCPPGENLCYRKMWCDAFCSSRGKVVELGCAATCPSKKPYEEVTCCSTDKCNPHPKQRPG

For 1 substance, binding results are on record in PMC10707033.

These are yes or no findings as the source states them, for the method shown. Some entries that bind do so weakly or less than the wild type.

For “[125I]-labeled α-bungarotoxin (from UniProt P60615 22-95)”, the binding entry was “binds”.
